In patent publication US8354443B2, “Cyclopropane indolinone derivatives” (Hoffmann-La Roche Inc., priority 2009, dated 2013):
At least one compound was matched to its structure with a doubt left.

Tested on: recombinant AMPK proteins (α1β1γ1, α2β1γ1, α1(1-335), α1(1-394) or α2(1-394))
Experiment: Scintillation Proximity Assay (AMPK activation)
Format: biochemical, human
Settings: effective concentration of activator for 50% of maximal enzyme activity; 2 hr at 30° C.; AMPK form not specified
Excerpt: Recombinant human AMPK α1β1γ1, α2β1γ1 or AMPK a subunit truncations α1 (1-335), α1 (1-394) and α2(1-394) were constructed, expressed and purified as described previously (Pang, T., Zhang, Z. S., Gu, M., Qiu, B. Y., Yu, L. F., Cao, P. R., Shao, W., Su, M. B., Li, J. Y., Nan, F. J., and Li, J. (2008) or purchased from Invitrogen (San Diego, Calif., U.S.A.). Rat liver AMPK heterotrimer enzyme was obtained from Upstate (Billerica, Mass., U.S.A.).
Before the Scintillation Proximity Assay (SPA) assay, 200 nM recombinant AMPK proteins (α1β1γ1, α2β1γ1, α1(1-335), α1(1-394) or α2(1-394)) were fully phosphorylated as described previously (Pang et al., 2008). SPA reactions were performed in 96-well plates at a final volume of 50 μl containing 20 mM Tris-HCl pH 7.5, 5 mM MgCl2, 1 mM DTT, 2 μM biotin-SAMS, 2 μM ATP, 0.2 μCi/well [γ-^33P]ATP, and various amount of activator. Reactions were initiated by the addition of 50 nM recombinant AMPK proteins to the reaction solutions and incubated at 30° C. for 2 hr. After that, reactions were terminated by the addition of 40 μl stop solution containing 80 μg streptavidin-coated SPA beads per well, 50 mM EDTA, 0.1% Triton X-100 in PBS, pH 7.5 and incubated for 1 hr. […] SPA signals were determined with a Wallac MicroBeta plate counter (PerkinElmer) 30 min later for calculation of the amount of product formed. […]

Structure (SMILES) | EC50 [µM]
O=C(O)c1cccc(CN2C(=O)[C@]3(C[C@@H]3c3ccc(Cl)cc3)c3cc(Cl)ccc32)c1 (mixture of isomers) [Example 13, (1S,2R) and (1R,2S)-((5′-chloro-2-(4-chlorophenyl)-2′-oxospiro[cyclopropane-1,3′-indoline]-1′-yl)methyl)benzoic acid] | 3.23
CN(C)C(=O)c1cccc(CN2C(=O)[C@]3(C[C@@H]3c3ccc(Cl)cc3)c3ccccc32)c1 (racemic) [Example 111, (1S,2R) and (1R,2S)-3-((2-(4-chlorophenyl)-2′-oxospiro[cyclopropane-1,3′-indoline]-1′-yl)methyl)-N,N-dimethylbenzamide] | 1.29
